Reference: PubChem BioAssay AID504834 (National Center for Advancing Translational Sciences (NCATS), 2011)
About 22,000 (6.9%) of roughly 320,000 compounds were called active. Inconclusive results, whose numbers are uncertain, are shown with a selection of clear calls. The call rests on the fitted dose curve; in most records, active means well fitted inhibition curve with a large enough effect; inconclusive means small, poorly fitted or top-dose-only effect, or another doubt; inactive means no such curve, though single readings can be large or run the other way. Where the call is inconclusive, the potency comes from a doubtful curve fit.

Experiment: Primary qHTS for delayed death inhibitors of the malarial parasite plastid, 96 hour incubation
Conditions: P. falciparum luciferase reporter growth; series mostly up to 28.7 µM
In short: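 Compounds incubated with erythrocytes infected by luciferase-expressing P. falciparum (2% hematocrit, 0.05% parasitemia final) for 96 hours, 37 C in 5% CO2. Growth inhibition scored as decreased luciferase luminescence.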
Potency means the concentration at half of the fitted maximal effect.

Structure (SMILES)	Potency
COC(=O)C1=C(C)N(Cc2ccc(C)cc2)C(=O)C1	inactive
CCC1=C(OC(=O)c2ccccc2)C(C)(C)C(c2ccccc2)OC1=O (centres undefined)	inconclusive: 0.0029 µM [inhibitor, full curve, poor fit]
CC(=O)N1CCN(C(=O)CN2C(=O)NC(C)(c3ccc4ccccc4c3)C2=O)CC1 (centres undefined)	inconclusive: 18.5 µM [inhibitor, single point]
CN(C)CCCOC1C(C(O)CO)OC2OC(C)(C)O[C@@H]21 (some centres undefined)	inactive
O=C(NCC(=O)N1CCN(C(=O)c2ccco2)CC1)c1ccccc1	inconclusive: 11.7 µM [inhibitor, single point]
CCOC(=O)C(C)Sc1ncc(-c2ccc(Cl)cc2)cn1 (centres undefined)	inconclusive: 0.104 µM [inhibitor, full curve, poor fit]
CCOC(=O)C1C(=O)N(C)C2(C)CC1c1ccccc1O2 (centres undefined)	inconclusive: 13.1 µM [inhibitor, partial curve, poor fit]
Cc1ccc(C)c(S(=O)(=O)N2CCN(C(=O)c3cc(S(=O)(=O)NCc4ccccc4)ccc3C)CC2)c1	inconclusive: 1.85 µM [inhibitor, full curve, poor fit]
CC(=O)Nc1ccc(NC(=O)COC(=O)c2cc([N+](=O)[O-])ccc2N2CCOCC2)cc1	inactive
COc1ccc(CCNc2cc(C)nc3c(-c4ccc(Cl)cc4)c(C)nn23)cc1OC	active: 10.4 µM
Cc1cccc(C)c1NC(=S)N/N=C/c1ccc(C(=O)O)cc1	inactive
CC(=O)[C@@H]1[C@@H](C(=O)c2ccc(F)cc2)[C@]2(C(=O)Nc3ccccc32)[C@H]2C=Cc3cc(F)ccc3N12	inconclusive: 11.7 µM [inhibitor, single point]
CCOc1cc(CN2CCN(Cc3ccc(C)o3)C(CCO)C2)ccc1OC (centres undefined)	inconclusive: 11.7 µM [inhibitor, single point]
CCC(C)NC(=O)C1=C(C)C(=O)OC12CCC(C)CC2 (centres undefined)	inactive
CC(C)CN1CCC(=O)N([C@H](CSc2ccc(Br)cc2)Cc2ccccc2)CC1	inconclusive: 18.5 µM [inhibitor, single point]
Cc1ccccc1CCNC(=O)CCn1ccc2cc(S(=O)(=O)N3CCCC3)ccc21	inconclusive: 0.928 µM [inhibitor, full curve, poor fit]
CC(=O)NC(NC(=S)Nc1ccc(S(N)(=O)=O)cc1)C(Cl)(Cl)Cl (centres undefined)	inactive
Cc1cc(NC(=S)Nc2ccccc2)ccc1Br	inconclusive: 0.0465 µM [inhibitor, full curve, poor fit]
O=C(OC(C(=O)NCc1cccs1)c1ccccc1Cl)c1ccco1 (centres undefined)	inactive
O=C(NNC(=S)Nc1ccccc1Cl)c1ccccc1Cl	inconclusive: 18.5 µM [inhibitor, partial curve, poor fit]
O=C1NC[C@H](c2ccccc2)N(CCc2cc(C(F)(F)F)cc(C(F)(F)F)c2)C1=O	inconclusive: 5.22 µM [inhibitor, partial curve]
Cc1ccc(NC(=O)C2CCN(C(=O)OC(C)(C)C)CC2)cc1S(=O)(=O)N1CCCCC1	inconclusive: 10.4 µM [inhibitor, single point]
CC(=O)NCCNC(=O)[C@H](Cc1ccccc1)NC(=O)c1cccs1	inconclusive: 5.86 µM [inhibitor, partial curve, poor fit]

Individual results from the entries so far:
Value for O=C(NCC(=O)N1CCN(C(=O)c2ccco2)CC1)c1ccccc1 under Potency: inconclusive: 11.7 µM [inhibitor, single point]
Value for COc1ccc(CCNc2cc(C)nc3c(-c4ccc(Cl)cc4)c(C)nn23)cc1OC under Potency: active: 10.4 µM
Value for O=C(OC(C(=O)NCc1cccs1)c1ccccc1Cl)c1ccco1 (centres undefined) under Potency: inactive

Continued.

Structure (SMILES)	Potency
Nc1ccc(S(=O)(=O)NC2(C(F)(F)F)NC(=O)N(c3ccccc3F)C2=O)cc1 (centres undefined)	inactive
Cc1cccc(-n2c(O)c(C=NC3CCS(=O)(=O)C3)c3ccccc3c2=O)c1C (centres undefined)	inactive
Cc1cccc(C(=O)NC(=S)Nc2ccc(N3CCOCC3)cc2)c1	inconclusive: 16.5 µM [inhibitor, single point]
CCNc1nc(NCC)n2c(SCC(=O)Nc3ccc(OC(F)F)cc3)nnc2n1	inconclusive: 3.29 µM [inhibitor, partial curve]
O=C(CCNS(=O)(=O)c1ccc(Br)cc1)N1CCN(c2ccccc2O)CC1	inconclusive: 6.57 µM [inhibitor, partial curve]
COc1ccccc1/C=C/C=N/n1c(-c2ccccc2)n[nH]c1=S	inconclusive: 4.65 µM [inhibitor, partial curve]
O=C(COc1ccc(C(=O)c2ccc(F)cc2)cc1)NCc1ccc(F)cc1	inconclusive: 2.33 µM [inhibitor, single point]
COCCN1CC(CNC(=O)c2cc(COc3ccc(C)c(C)c3)on2)CC1=O (centres undefined)	inactive
CCCC(=O)OCCNc1cc(SCc2ccco2)c2nonc2c1[N+](=O)[O-]	inconclusive: 18.5 µM [inhibitor, partial curve, poor fit]
O=C1CSC2(CCN(CCCN3c4ccccc4Sc4ccc(Cl)cc43)CC2)N1	active: 8.49 µM
O=C(CSc1nnc(-c2ccc(O)cc2)o1)Nc1cccc(O)c1	inconclusive: 11.7 µM [inhibitor, single point]
COc1ccc(C(=O)N/N=C/c2c(CO)cnc(C)c2O)cc1	inconclusive: 18.5 µM [inhibitor, single point]
O=C(c1cc([N+](=O)[O-])ccc1Cl)N1CCN(Cc2ccccc2)CC1	inconclusive: 10.4 µM [inhibitor, single point]
O=C(c1ccc(-n2cccc2)cc1)N1CCN(Cc2ccccc2)CC1	inactive
Cc1nc(C)c(/C(O)=C\c2nc3ccc([N+](=O)[O-])cc3oc2=O)o1	inactive
CCCCNC(=O)c1ccccc1NC(=O)CN(c1ccccc1)S(=O)(=O)N(C)C	inactive
CCOC(=O)C(C)Sc1nnc(-c2c[nH]c3ccccc23)n1C (centres undefined)	inconclusive: 18.5 µM [inhibitor, single point]
CC(=O)NC(c1cc(F)c2cccnc2c1O)C(C)C (centres undefined)	inconclusive: 14.7 µM [inhibitor, single point]
COc1cccc(CNC(=O)CCNC(=O)N2CCn3c2nc2ccccc23)c1	inconclusive: 13.1 µM [inhibitor, single point]
COc1cc(-c2nn3c(-c4ccccn4)nnc3s2)cc(OC)c1OC	inactive
C=CCN1C(=O)C(CC(=O)Nc2ccc(OC)cc2)N(Cc2ccco2)C1=S (centres undefined)	inconclusive: 2.94 µM [inhibitor, full curve, poor fit]
Cc1ccc(-n2nnnc2SCC(=O)c2cc(C)n(CC3CCCO3)c2C)cc1 (centres undefined)	active: 1.47 µM
COc1ccc(S(=O)(=O)N(CC(=O)O)c2ccccn2)cc1	inactive

Structure (SMILES)	Potency
CC(=O)c1ccc(OCCn2c(SCC(=O)O)nc3ccccc32)cc1	inconclusive: 16.5 µM [inhibitor, single point]
COc1cc(OC)cc(-c2c(C#Cc3ccsc3)c3cc(-c4ccc5[nH]ccc5c4)ccc3n2C)c1	inconclusive: 3.7 µM [inhibitor, partial curve, poor fit]
O=C(Nc1ccc(NC(=O)c2ccc([N+](=O)[O-])o2)cc1Cl)c1ccco1	inactive
Nc1cccc2cc(-c3ccccc3)oc12	inactive
COc1cc(C(CCN2CCN(c3ccccc3)CC2)c2c(OC)cc(OC)c3c(C)cc(=O)oc23)cc(OC)c1OC (centres undefined)	active: 3.7 µM
COc1cc(C=NCC2OCCc3ccccc32)cc(OC)c1 (centres undefined)	active: 9.28 µM
O=C(NCc1ccncc1)Nc1ccc(Cl)cc1Cl	inconclusive: 13.1 µM [inhibitor, single point]
O=C(NNC(=S)NC(=O)c1cccs1)c1ccc(O)cc1	inconclusive: 18.5 µM [inhibitor, single point]
Cc1ccccc1OCC(=O)Nc1ccc(S(=O)(=O)N2CCCC2)cc1	inconclusive: 9.28 µM [inhibitor, single point]
CSc1nnc(CNS(=O)(=O)c2ccc(Br)cc2)n1C	inactive
COc1ccc2cnn(Cc3ccccc3)c(=O)c2c1OC	inconclusive: 0.828 µM [inhibitor, partial curve, poor fit]
O=C1CC(c2ccccc2)CC(O)=C1C=NCc1ccc(Cl)c(Cl)c1 (centres undefined)	inconclusive: 0.117 µM [inhibitor, full curve, poor fit]
Cc1cc(NC(=O)C(C)SCC(=O)N(C)CC(=O)Nc2ccc(Br)cc2C)no1 (centres undefined)	inconclusive: 13.1 µM [inhibitor, single point]
O=C(CCCCC(=O)Nc1ccc(F)cc1)Nc1ccc(F)cc1	inactive
O=C(NCc1ccc(F)cc1)C1CC(=O)N(C2CCCCCCC2)C1 (centres undefined)	inconclusive: 18.5 µM [inhibitor, single point]
Cc1ccc(S(=O)(=O)N(C)C)cc1NC(=O)COC(=O)CCC1CCCCC1	inactive
Cc1ccc(S(=O)(=O)CCC(=O)NCc2ccccc2F)cc1	inactive
COc1ccc(OC)c(NC(=O)CSc2ccc3nnc(-c4ccccn4)n3n2)c1	inconclusive: 18.5 µM [inhibitor, single point]
COc1cc(/C(C)=N\NC(N)=S)cc(OC)c1OC	inconclusive: 10.4 µM [inhibitor, single point]
COc1ccc(OC)c(/C=N/NC(=O)CCN2CCN(C(c3ccccc3)c3ccccc3)CC2)c1	inconclusive: 2.33 µM [inhibitor, partial curve, poor fit]
CCN1CCc2nc(NC(=O)C(c3ccccc3)c3ccccc3)sc2C1	active: 8.28 µM
CC(=O)Nc1ccc(S(=O)(=O)NCCC(=O)OCc2csc(CC(=O)Nc3ccccc3C)n2)cc1	inconclusive: 10.4 µM [inhibitor, single point]
Cc1cccc(OCCCC(=O)Nc2ccccc2C(F)(F)F)c1	inconclusive: 0.0037 µM [inhibitor, full curve, poor fit]
